Reference: publication PMC12578312
No constants are given. Whether binding was seen depends on the method and setting. In cells and extracts the contact can be indirect. Some entries that bind do so weakly or less than the wild type.

Amino acid sequences for entries named in this document (tags omitted).
UniProt Q9H6L5: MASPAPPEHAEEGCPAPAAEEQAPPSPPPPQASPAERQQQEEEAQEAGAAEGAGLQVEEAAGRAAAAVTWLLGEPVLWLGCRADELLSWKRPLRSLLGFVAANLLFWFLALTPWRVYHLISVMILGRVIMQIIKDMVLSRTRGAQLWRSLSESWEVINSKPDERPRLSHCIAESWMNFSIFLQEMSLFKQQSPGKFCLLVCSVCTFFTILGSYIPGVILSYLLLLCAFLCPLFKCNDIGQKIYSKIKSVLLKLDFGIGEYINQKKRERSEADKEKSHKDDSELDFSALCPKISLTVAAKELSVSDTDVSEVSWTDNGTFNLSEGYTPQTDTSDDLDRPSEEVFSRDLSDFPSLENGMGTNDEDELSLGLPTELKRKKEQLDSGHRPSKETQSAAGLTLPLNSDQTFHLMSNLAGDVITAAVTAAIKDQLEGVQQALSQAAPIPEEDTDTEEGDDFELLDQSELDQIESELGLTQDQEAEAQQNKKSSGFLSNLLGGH

Key:
[1] = target: FAM134B-V5 (UniProt Q9H6L5); experiment: co-IP; HeLa WT cells transfected with FAM134B-V5 alone or with ATZ-HA; 100 nM BafA1 for 6 h; lysed with 2% CHAPS; V5-agarose beads at 4°C overnight; western blot of endogenous proteins
[2] = target: FAM134B-V5 (UniProt Q9H6L5); experiment: co-IP; HEK293 cells transfected with FAM134B-V5 alone, with ATZ-HA or with NHK-HA; 100 nM BafA1 for 6 h; lysed with 2% CHAPS in HEPES buffer pH 6.8; V5-agarose beads at 4°C overnight, washes with 0.5% CHAPS; western blot of endogenous and HA-tagged proteins
[3] = target: FAM134B-V5 (UniProt Q9H6L5); experiment: co-IP; HeLa VAPA/B DKO cells transfected with FAM134B-V5 alone or with ATZ-HA; 100 nM BafA1 for 6 h; lysed with 2% CHAPS; V5-agarose beads at 4°C overnight; western blot of endogenous proteins

Measured: binding

B1: calnexin (CNX) (protein, UniProt P27824 21-592)
chain: HDGHDDDVIDIEDDLDDVIEEVEDSKPDTTAPPSSPKVTYKAPVPTGEVYFADSFDRGTLSGWILSKAKKDDTDDEIAKYDGKWEVEEMKESKLPGDKGLVLMSRAKHHAISAKLNKPFLFDTKPLIVQYEVNFQNGIECGGAYVKLLSKTPELNLDQFHDKTPYTIMFGPDKCGEDYKLHFIFRHKNPKTGIYEEKHAKRPDADLKTYFTDKKTHLYTLILNPDNSFEILVDQSVVNSGNLLNDMTPPVNPSREIEDPEDRKPEDWDERPKIPDPEAVKPDDWDEDAPAKIPDEEATKPEGWLDDEPEYVPDPDAEKPEDWDEDMDGEWEAPQIANPRCESAPGCGVWQRPVIDNPNYKGKWKPPMIDNPSYQGIWKPRKIPNPDFFEDLEPFRMTPFSAIGLELWSMTSDIFFDNFIICADRRIVDDWANDGWGLKKAADGAAEPGVVGQMIEAAEERPWLWVVYILTVALPVFLVILFCCSGKKQTSGMEYKKTDAPQPDVKEEEEEKEEEKDKGDEEEEGEEKLEEKQKSDAEEDGGTVSQEEEDRKPKAEEDEILNRSPRNRKPRRE
binds: all assays above
